# Results published in the supplement of paper PMC10032668.
# By UniProt entry, the sequences of proteins in these tests, tags left out.
# TUBB8, Q3ZCM7, UniProt Q3ZCM7, whole entry: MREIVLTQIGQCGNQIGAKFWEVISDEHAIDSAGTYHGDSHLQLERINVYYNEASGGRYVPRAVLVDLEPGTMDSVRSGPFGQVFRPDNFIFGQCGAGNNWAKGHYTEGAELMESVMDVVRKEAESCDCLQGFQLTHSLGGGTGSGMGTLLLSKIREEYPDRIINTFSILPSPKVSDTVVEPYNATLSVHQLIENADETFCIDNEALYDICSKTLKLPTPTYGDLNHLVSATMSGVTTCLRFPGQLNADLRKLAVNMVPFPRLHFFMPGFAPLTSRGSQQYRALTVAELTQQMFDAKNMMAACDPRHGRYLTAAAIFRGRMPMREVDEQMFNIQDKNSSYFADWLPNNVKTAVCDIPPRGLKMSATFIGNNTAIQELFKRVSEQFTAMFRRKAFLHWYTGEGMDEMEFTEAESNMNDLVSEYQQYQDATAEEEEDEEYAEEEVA
# Some of the results follow. Only hits are listed; about a third recur on repeated control peptides.
# Columns and labels:
# Assay in all cases: PRISMA enrichment of interactor (LFQ) in peptide spot vs all other peptide spots (log2 fold change); higher = stronger / more specific binding of the interactor to the peptide
# [1] = target: ARID1A, O14497
# Procedure: (§1)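 PRISMA: 221 full-length sORF-encoded peptides (3-15 aa), plus SOS1/GLUT1 control peptides, were spot-synthesized on cellulose membranes in triplicate. Membranes were incubated with HEK293T lysate, and bound proteins were identified by LC-MS/MS with LFQ. Enrichment is the log2 fold change versus all other peptide spots; only significant interactors are listed (cutoff c=6, x0=2.8).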
# [2] = target: CSNK1A1, P48729
# Procedure: as §1
# [3] = target: IPO11, Q9UI26
# Procedure: as §1
# [4] = target: LIG1, P18858
# Procedure: as §1
# [5] = target: SDF4, Q9BRK5
# Procedure: as §1
# [6] = target: ZYX, Q15942
# Procedure: as §1
# [7] = target: ASCC2, Q9H1I8
# Procedure: as §1
# [8] = target: COIL, P38432
# Procedure: as §1
# [9] = target: COPZ1, P61923
# Procedure: as §1
# [10] = target: DDX23, Q9BUQ8
# Procedure: as §1
# [11] = target: LARP4, Q71RC2
# Procedure: as §1
# [12] = target: MRPS9, P82933
# Procedure: as §1
# [13] = target: SEPTIN8, Q92599
# Procedure: as §1
# [14] = target: TRAPPC3, O43617
# Procedure: as §1
# [15] = target: TUBB8, Q3ZCM7
# Procedure: as §1
# [16] = target: UBR4, Q5T4S7
# Procedure: as §1
# [17] = target: USP9X, Q93008
# Procedure: as §1
# [18] = target: ASCC3, Q8N3C0
# Procedure: as §1
# [19] = target: CHCHD1, Q96BP2
# Procedure: as §1
# [20] = target: CLPB, Q9H078
# Procedure: as §1
# [21] = target: CTSA, P10619
# Procedure: as §1
# [22] = target: DERPC, P0CG12
# Procedure: as §1
# [23] = target: FGA, P02671
# Procedure: as §1
# [24] = target: GIT1, Q9Y2X7
# Procedure: as §1
# [25] = target: MT-ATP8, P03928
# Procedure: as §1
# [26] = target: PDCD6, O75340
# Procedure: as §1
# [27] = target: PSMC4, P43686
# Procedure: as §1
# [28] = target: UQCRQ, O14949
# Procedure: as §1
# [29] = target: ASF1B, Q9NVP2
# Procedure: as §1
# [30] = target: C3, P01024
# Procedure: as §1
# [31] = target: CLTA, P09496
# Procedure: as §1
# [32] = target: COG5, Q9UP83
# Procedure: as §1
# [33] = target: EDRF1, Q3B7T1
# Procedure: as §1
# [34] = target: KIF20A, O95235
# Procedure: as §1
# [35] = target: KIF2C, Q99661
# Procedure: as §1
# [36] = target: NUP58, Q9BVL2
# Procedure: as §1
# [37] = target: PURA, Q00577
# Procedure: as §1
binder,measurement,setting,value
MDEDVLHPEEPHHR [SVIL-AS1],PRISMA enrichment of interactor (log2),[1],3.97
same,PRISMA enrichment of interactor (log2),[2],5.35
same,PRISMA enrichment of interactor (log2),[3],5.97
same,PRISMA enrichment of interactor (log2),[4],4.82
same,PRISMA enrichment of interactor (log2),[5],4.81
same,PRISMA enrichment of interactor (log2),[6],4.96
MKIRFVTPTTSKE [RP11-326I11.3],PRISMA enrichment of interactor (log2),[7],4.23
same,PRISMA enrichment of interactor (log2),[8],4.71
same,PRISMA enrichment of interactor (log2),[9],5.54
same,PRISMA enrichment of interactor (log2),[10],6.15
same,PRISMA enrichment of interactor (log2),[11],8.97
same,PRISMA enrichment of interactor (log2),[12],4.89
same,PRISMA enrichment of interactor (log2),[13],5.02
same,PRISMA enrichment of interactor (log2),[14],3.96
same,PRISMA enrichment of interactor (log2),[15],5.64
same,PRISMA enrichment of interactor (log2),[16],5.27
same,PRISMA enrichment of interactor (log2),[17],5.32
MHLPTTLNH [SORBS1],PRISMA enrichment of interactor (log2),[18],6.21
same,PRISMA enrichment of interactor (log2),[19],4.7
same,PRISMA enrichment of interactor (log2),[20],4.47
same,PRISMA enrichment of interactor (log2),[21],5.15
same,PRISMA enrichment of interactor (log2),[22],8.82
same,PRISMA enrichment of interactor (log2),[23],4.73
same,PRISMA enrichment of interactor (log2),[24],4.34
same,PRISMA enrichment of interactor (log2),[25],6.2
same,PRISMA enrichment of interactor (log2),[26],6.46
same,PRISMA enrichment of interactor (log2),[27],5.03
same,PRISMA enrichment of interactor (log2),[28],5.04
MRRLETTGQ [NHLRC2],PRISMA enrichment of interactor (log2),[29],5.11
same,PRISMA enrichment of interactor (log2),[30],5.4
same,PRISMA enrichment of interactor (log2),[31],6.84
same,PRISMA enrichment of interactor (log2),[32],5.64
same,PRISMA enrichment of interactor (log2),[33],6.26
same,PRISMA enrichment of interactor (log2),[34],4.56
same,PRISMA enrichment of interactor (log2),[35],5.78
same,PRISMA enrichment of interactor (log2),[36],5.63
same,PRISMA enrichment of interactor (log2),[37],6.51
